Primary screen of a compound library

Data taken from ChEMBL document CHEMBL3988442, “University of Dundee, Small-Polar-MMV Screening Library” (2021).

Results are given as percent effect. The record does not define 0% and 100%; most values in the screen are far below 50% and negative numbers occur (in some assays of this library far below -100). The compounds are a random part of those screened. Two or more numbers in one place are separate tests of the same structure; such repeats can differ widely.

Mtb glucose medium: 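Whole-cell growth test on Mycobacterium tuberculosis, read after 3 days in glucose-containing 7H9 medium; the read-out is not stated. Tested at 50 µM. Direction is inferred from retests: higher values go with more growth inhibition. Of about 69,000 compounds tested this way, about 760 (1.1%) reached 50% or more in at least one test.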
Mtb cholesterol medium: 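Phenotypic screen: M. tuberculosis growth, cholesterol and DPPC medium, 4 days; the read-out is not stated. Concentration: 50 µM. The record gives no direction; compounds that gave an IC50 in retests scored well above the rest, so higher reads as more growth inhibition. About 69,000 compounds were tested under these conditions; 0.54% (about 370) showed 50% or more at least once.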

SMILES,Mtb glucose medium,Mtb cholesterol medium
Cc1nc(-c2ccccc2)cc2nn(CC(N)=O)c(=O)n12,-34.82,-32.68
O=C1CC(C(=O)Nc2nnc(-c3cccs3)[nH]2)c2ccccc2N1 (configuration not stated),6.615,7.986
Cc1nn(C)cc1-c1cc(C(=O)N2CCc3ncc(Cl)cc3C2)on1,5.519,10.75 & 7.409
CC(C)CCN1CCc2nc(N3CCOCC3)nc(NC(C)C)c2C1,-12.9,3.852 & -0.5957
COCC(=O)Nc1ccc2c(c1)CN(C(=O)c1ccco1)CC2,-16.27,-23.83
CCOC(=O)C1CCN(C(=O)c2cnn(-c3ccc(C)cc3)c2N)CC1,-0.1854,-1.192
COc1cc2c(cc1OC)CCN(C(=O)Cn1nc(C)cc1C)CC2,14.6,6.607
CN(C)c1ccc(C(=O)N2CCCC(n3cncn3)C2)nn1 (configuration not stated),5.597,-2.037
O=C(c1cnccn1)N1CCCC(Cn2cc(C3CCCC3)nn2)C1 (configuration not stated),-7.776,-0.7709
CCc1cc(C(=O)N2CCC3(CCCN(CCOC)C3=O)C2)cs1 (configuration not stated),5.523 & 13.5,-10.93
CN(C)Cc1nnc(C2CCN(C(=O)CCc3cccs3)CC2)n1C,20.61,26.37
CC(C)(C)c1ncc(C(=O)NCc2cccc(C(=O)N3CCCC3)c2)s1,7.645,-6.291
CC1(C)OCC2(CO1)CN(S(=O)(=O)c1ccc(Br)s1)C2,15.29 & 1.815,-2.533
NCCn1nc(C2CCN(C(=O)CC3CCCCC3)C2)c2nccnc21 (configuration not stated),14.58,3.245
CCn1ncc2c1C(COC)CN(S(=O)(=O)N(C)C)C2.O=C(O)C(F)(F)F (configuration not stated),-12.62 & -1.458,1.011
Cn1cc(-c2csc(N3CCCCCC3)n2)cn1,27.09,-11.84
O=C1NCCCc2[nH]c(C3CCCN(C(=O)C4CC4)C3)nc21 (configuration not stated),-24.44,-18.53
c1ccc(-n2ccc(CN3CCCC3Cn3cccn3)n2)cc1 (configuration not stated),33.4,4.87
[H][C@]12CCC(=O)N(C)[C@@]1(C)CCCCN2C(=O)CCc1cccnc1,4.032,8.698
CCn1c(C)nnc1CN(C)C1CCN(Cc2sc(C)nc2C)C1 (configuration not stated),-3.566 & 8.195,-0.06508
Cc1cnn(CC2CCCCN2C(=O)c2n[nH]c3ccccc23)c1 (configuration not stated),-26.41,-17.6
CC(C)N1CC2(CCC1=O)CCN(c1ccnc3ccccc13)CC2,0.8558,4.096
CCOc1ccc(C(=O)CCC(=O)N(C)Cc2noc(C)n2)cc1C,-11.78,-2.843
O=C(c1ccno1)N1CC2(CCC(C(=O)N3CCCC3)O2)C1 (configuration not stated),-7.452 & 16.82,12.9
[H][C@@]12CCCO[C@]1([H])[C@H](N1CCOCC1)CN(C(=O)c1cc(C)[nH]c1C)C2,10.55 & -13.37,-26.3 & -0.3531
CCN(CC)C(=O)[C@@H]1C[C@@H](N)CN1c1nc(N2CCCC2)nc(C)c1C,17.47,14.07
CCc1ccccc1C(=O)N1C[C@@H](CN2CCOCC2)[C@@H](CO)C1,-10.39,9.023 & -0.7072
CC/N=c1\c(NC(=O)C(C)(C)C)c(O)oc2ccccc12,-4.893,-27.18
CCc1ccc(NC(=O)c2n[nH]c(-n3cnnc3)n2)cc1,25.44,-13.33
O=C(O)C(F)(F)F.[H][C@@]12CCCO[C@]1([H])[C@H](NC(=O)c1nccn1C)CN2Cc1cccs1,19.42 & -2.179,-24.36
CN1C(=O)COc2cc(NC(=O)CCc3nc4cccnc4[nH]3)ccc21,-5.154 & 4.69,-3.877
CC(C)C(=O)N1CCC(C)(c2cc[nH]n2)CC1,-9.962,0.2643
[H][C@]12CCCCN1CCC[C@@]2(O)CN1CCN(c2cc(C)ccn2)CC1,6.601,3.19
O=C(N[C@H]1CC[C@@]2(CCC(=O)N2CC2CC2)CC1)c1cnccn1,1.354,3.18
O=C(O)C(F)(F)F.O=C(O)C(F)(F)F.[H][C@]12CO[C@H](CN(C)C)[C@@]1([H])CCN(C(=O)NCc1cccnc1)C2,6.428 & -21.29,8.621
CNS(=O)(=O)Cc1cccc(CNc2ccc(C#N)cn2)c1,34.6,7.541
OCCNc1nc(NCc2cccnc2)nc2nccnc12,2.223 & 3.838,5.409
CCc1ccc(CN2CCc3[nH]nc(C(=O)N4CCNC(=O)C4)c3C2)o1,4.408 & 4.404,36.86
CC(C)[C@H](CO)Nc1nccc(-c2c[nH]nc2-c2ccncc2)n1,2.183,-4.595
CCOc1ccccc1CN(C)C(=O)CN1C(=O)OC[C@@H]1C(C)C,-12.47,-24.67
CN(C)S(=O)(=O)c1ccc(-c2nc(C#N)c(NC3CC3)o2)o1,6.332,-1.571